The target of this assay is amyloid beta 1-42 fibrils (human) (UniProt P05067). Description: co-sedimentation.

Amino acid sequences for entries named in this document (tags omitted). Residues count along the entry.
UniProt P05067, residues 672-713: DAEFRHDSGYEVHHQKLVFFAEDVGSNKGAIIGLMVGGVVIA

These are yes or no findings as the source states them, for the method shown. In cells and extracts the contact can be indirect. Some entries that bind do so weakly or less than the wild type.

B1: Vtn (protein, UniProt P29788 20-478)
chain: DQESCKGRCTQGFMASKKCQCDELCTYYQSCCADYMEQCKPQVTRGDVFTMPEDDYWSYDYVEEPKNNTNTGVQPENTSPPGDLNPRTDGTLKPTAFLDPEEQPSTPAPKVEQQEEILRPDTTDQGTPEFPEEELCSGKPFDAFTDLKNGSLFAFRGQYCYELDETAVRPGYPKLIQDVWGIEGPIDAAFTRINCQGKTYLFKGSQYWRFEDGVLDPGYPRNISEGFSGIPDNVDAAFALPAHRYSGRERVYFFKGKQYWEYEFQQQPSQEECEGSSLSAVFEHFALLQRDSWENIFELLFWGRSSDGAREPQFISRNWHGVPGKVDAAMAGRIYVTGSLSHSAQAKKQKSKRRSRKRYRSRRGRGHRRSQSSNSRRSSRSIWFSLFSSEESGLGTYNNYDYDMDWLVPATCEPIQSVYFFSGDKYYRVNLRTRRVDSVNPPYPRSIAQYWLGCPTSEK
Take B1: the binding result is “binds”.

B2: Sfrp1 (protein, UniProt Q8C4U3 32-314)
chain: SEYDYVSFQSDIGSYQSGRFYTKPPQCVDIPVDLRLCHNVGYKKMVLPNLLEHETMAEVKQQASSWVPLLNKNCHMGTQVFLCSLFAPVCLDRPIYPCRWLCEAVRDSCEPVMQFFGFYWPEMLKCDKFPEGDVCIAMTPPNTTEASKPQGTTVCPPCDNELKSEAIIEHLCASEFALRMKIKEVKKENGDKKIVPKKKKPLKLGPIKKKELKRLVLFLKNGADCPCHQLDNLSHNFLIMGRKVKSQYLLTAIHKWDKKNKEFKNFMKRMKNHECPTFQSVFK
Turning to B2, the binding entry was “binds”.

B3: Nog (protein, UniProt P97466 28-232)
chain: QHYLHIRPAPSDNLPLVDLIEHPDPIFDPKEKDLNETLLRSLLGGHYDPGFMATSPPEDRPGGGGGPAGGAEDLAELDQLLRQRPSGAMPSEIKGLEFSEGLAQGKKQRLSKKLRRKLQMWLWSQTFCPVLYAWNDLGSRFWPRYVKVGSCFSKRSCSVPEGMVCKPSKSVHLTVLRWRCQRRGGQRCGWIPIQYPIISECKCSC
For B3, the binding entry was “binds”.

B4: Olfml3 (protein, UniProt Q8BK62 22-406)
chain: QQHHLVEYMERRLAALEERLAQCQDQSSRLAAELRDFKNKMLPLLEVAEKERETLRTEADSISGRVDRLEREVDYLETQNPALPCVELDEKVTGGPGAKGKGRRNEKYDMVTDCSYTVAQVRSMKILKRFGGSAGLWTKDPLGPAEKIYVLDGTQNDTAFVFPRLRDFTLAMAARKASRIRVPFPWVGTGQLVYGGFLYYARRPPGGPGGGGELENTLQLIKFHLANRTVVDSSVFPAESLIPPYGLTADTYIDLAADEEGLWAVYATRDDDRHLCLAKLDPQTLDTEQQWDTPCPRENAEAAFVICGTLYVVYNTRPASRARIQCSFDASGTLAPERAALSYFPRRYGAHASLRYNPRERQLYAWDDGYQIVYKLEMKKKEEEV
Take B4: the binding entry is given as “binds”.

B5: pleiotrophin (protein, UniProt P21246 33-168)
chain: GKKEKPEKKVKKSDCGEWQWSVCVPTSGDCGLGTREGTRTGAECKQTMKTQRCKIPCNWKKQFGAECKYQFQAWGECDLNTALKTRTGSLKRALHNAECQKTVTISKPCGKLTKPKPQAESKKKKKEGKKQEKMLD
For the molecule B5, the binding entry is listed as “binds”.

B6: midkine (protein, UniProt P12025 23-140)
chain: KKKEKVKKGSECSEWTWGPCTPSSKDCGMGFREGTCGAQTQRVHCKVPCNWKKEFGADCKYKFESWGACDGSTGTKARQGTLKKARYNAQCQETIRVTKPCTSKTKSKTKAKKGKGKD
Regarding B6, the binding entry is recorded as “binds”.

B7: Frzb (protein, UniProt P97401 33-323)
chain: AACEPVRIPLCKSLPWNMTKMPNHLHHSTQANAILAMEQFEGLLGTHCSPDLLFFLCAMYAPICTIDFQHEPIKPCKSVCERARQGCEPILIKYRHSWPESLACDELPVYDRGVCISPEAIVTADGADFPMDSSTGHCRGASSERCKCKPVRATQKTYFRNNYNYVIRAKVKEVKMKCHDVTAVVEVKEILKASLVNIPRDTVNLYTTSGCLCPPLTVNEEYVIMGYEDEERSRLLLVEGSIAEKWKDRLGKKVKRWDMKLRHLGLGKTDASDSTQNQKSGRNSNPRPARS
As to B7, the binding entry was “binds”.

B8: Smoc2 (protein, UniProt Q8CD91 22-447)
chain: QKFSALTFLRVDQDKDRDCSLDCPSSPQKPLCASDGRTFLSRCEFQRAKCKDPQLEIAHRGNCKDVSRCVAERKYTQEQARKEFQQVFIPECNDDGTYSQVQCHSYTGYCWCVTPNGRPISGTAVAHKTPRCPGSINEKVPQREGAGKADDAAAPALETQPQGDEEDIASRYPTLWTEQVKSRQNKTNKNSASSCDQEHQSALEEAKQPKNDNVVIPECAHGGLYKPVQCHPSTGYCWCVLVDTGRPIPGTSTRYEQPKCDNTARAHPAKARDLYKNRPLQGCPGAKKHEFLTSVLDALSTDMVHAVSDPSSSSGRLSEPDPSHTLEERVVHWYFKLLDKNSSGDIGKKEIKPFKRFLRKKSKPKKCVKKFVEYCDMNNDKSITVQELMGCLGVTREEGKANTRKRHTPRGNAESSSSNRQPRKQG
As to B8, the binding entry is “binds”.

B9: Smoc1 (protein, UniProt Q8BLY1 26-463)
chain: HRTTGPRFLISDRDPPCNPHCPRTQPKPICASDGRSYESMCEYQRAKCRDPALAVVHRGRCKDAGQSKCRLERAQALEQAKKPQEAVFVPECGEDGSFTQVQCHTYTGYCWCVTPDGKPISGSSVQNKTPVCSGPVTDKPLSQGNSGRKVSFRFFLTLNSDDGSKPTPTMETQPVFDGDEITAPTLWIKHLVIKDSKLNNTNVRNSEKVHSCDQERQSALEEARQNPREGIVIPECAPGGLYKPVQCHQSTGYCWCVLVDTGRPLPGTSTRYVMPSCESDARAKSVEADDPFKDRELPGCPEGKKMEFITSLLDALTTDMVQAINSAAPTGGGRFSEPDPSHTLEERVAHWYFSQLDSNSSDDINKREMKPFKRYVKKKAKPKKCARRFTDYCDLNKDKVISLPELKGCLGVSKEGGSLGSFPQGKRAGTNPFIGRLV
B9: the binding entry is “binds”.

Source of the values: publication doi:10.1101/2023.11.29.568318.
